# USRE39708E1, “Estrogen receptor modulators” (Chiron Corporation, priority 1998, dated 2007)
# Where two headings read alike, the source gives them in different places. Some entries share one result that the patent states for a list of compounds. At least one structure is not confirmed: it was looked up by name or label, or the drawing left a doubt.
# Tested on: ERα and/or ERβ
# Test: ERα/ERβ transactivation assay in transfected CHO cells (luciferase reporter), estrogenicity and anti-estrogenicity
# Format: cell-based, human
# [1] = read-out: agonist or antagonist EC50 (determined to be active); active against either or both ERα and ERβ; agonist or antagonist value
# [2] = active against either or both ERα and ERβ; agonist or antagonist value; read-out: agonist or antagonist EC50 (determined to be active)
SMILES,EC50 [1] [µM],EC50 [2] [µM]
CCCCC1CCC(C(=O)Oc2ccc(-c3nn(C4CCC4)c(-c4ccc(O)cc4)c3CC)cc2)CC1 (stereo not shown) [4-[1-cyclobutyl-4-ethyl-5-(4-hydroxyphenyl)pyrazol-3-yl]phenyl 4-butylcyclohexanecarboxylate],≤ 4,–
"Oc1ccc(-c2nn(-c3ccc(F)cc3)c(-c3ccc(O)cc3)c2-c2ccc(O)cc2)cc1 [4-[3,5-bis(4-hydroxyphenyl)-1-(4-fluorophenyl)pyrazol-4-yl]phenol]",≤ 4,–
"CCc1c(-c2ccc(O)cc2)nn(CC(=O)c2ccc(F)cc2)c1-c1ccc(O)cc1 [2-[3,5-bis(4-hydroxyphenyl)-4-ethylpyrazol]-1-(4-fluorophenyl)ethan-1-one]",≤ 4,–
CCCCn1nc(-c2ccc(O)cc2)c(CC)c1-c1ccc(O)cc1 [4-[1-butyl-4-ethyl-5-(4-hydroxyphenyl)pyrazol-3-yl]phenol],≤ 4,–
CCc1c(-c2ccc(O)cc2)nn(-c2cc(F)ccc2C)c1-c1ccc(O)cc1 [4-[4-ethyl-1-(5-fluoro-2-methylphenyl)-5-(4-hydroxyphenyl)pyrazol-3-yl]phenol],≤ 4,–
"Oc1ccc(-c2nn(-c3ccc(F)cc3F)c(-c3ccc(O)cc3)c2-c2ccccc2)cc1 [4-[1-(2,4-difluorophenyl)-5-(4-hydroxyphenyl)-4-phenylpyrazol-3-yl]phenol]",≤ 4,–
CCc1c(-c2ccc(O)cc2)nn(-c2ccc(C(F)(F)F)cc2)c1-c1ccc(O)cc1 [4-{4-ethyl-5-(4-hydroxyphenyl)-1-[4-(trifluoromethyl)phenyl]pyrazol-3-yl}phenol],≤ 4,–
"CCc1c(-c2ccc(O)cc2)nn(-c2cc(C(F)(F)F)cc(C(F)(F)F)c2)c1-c1ccc(O)cc1 [4-{1-[3,5-bis(trifluoromethyl)phenyl]-4-ethyl-5-(4-hydroxyphenyl)pyrazol-3-yl}phenol]",≤ 4,–
Oc1ccc(-c2nn(-c3ccccc3Cl)c(-c3ccc(O)cc3)c2Cc2ccccc2)cc1 [4-[1-(2-chlorophenyl)-5-(4-hydroxyphenyl)-4-benzylpyrazol-3-yl]phenol],≤ 4,–
CCCCC1CCC(C(=O)Oc2ccc(-c3nn(C4CCC4)c(-c4ccc(OC(=O)C5CCC(CCCC)CC5)cc4)c3CC)cc2)CC1 (stereo not shown) [4-{5-[4-(4-butycyclohexylcarbonyloxy)phenyl]-1-cyclobutyl-4-ethylpyrazol-3-yl}phenyl 4-butylcyclohexanecarboxylate],≤ 4,–
CCc1c(-c2ccc(O)cc2)nn(-c2ccccn2)c1-c1ccc(O)cc1 [4-[4-ethyl-5-(4-hydroxyphenyl)-1-(2-pyridyl)pyrazol-3-yl]phenol],≤ 4,–
Oc1ccc(-c2c3ccc4cc(O)ccc4c3nn2C2CCC2)cc1 [2-cyclobutyl-3-(4-hydroxyphenyl)-2-hydrobenzo[g]1H-indazol-7-ol],≤ 4,–
"Oc1ccc(-c2cc(-c3ccc(O)cc3)n(-c3ccc(O)cc3)n2)cc1 [4-[1,3-bis(4-hydroxyphenyl)pyrazol-5-yl]phenol]",≤ 4,–
CCCC(=O)Oc1ccc(-c2nn(C)c(-c3ccc(OC(=O)CCC)cc3)c2CC)cc1 [4-[3-(4-butanoyloxyphenyl)-4-ethyl-1-methylpyrazol-5-yl]phenyl butanoate],≤ 4,–
CCc1c(-c2ccc(O)cc2)nn(-c2ccccc2Cl)c1-c1ccc(O)cc1 [4-[1-(2-chlorophenyl)-4-ethyl-5-(4-hydroxyphenyl)pyrazol-3-yl]phenol],≤ 4,–
CCc1c(-c2ccc(O)cc2)nn(Cc2cccc(Cl)c2)c1-c1ccc(O)cc1 [4-{1-[(3-chlorophenyl)methyl]-4-ethyl-5-(4-hydroxyphenyl)pyrazol-3-yl}phenol],≤ 4,–
Oc1ccc(-c2nn(-c3ccc(F)cc3)c(-c3ccc(O)cc3)c2-c2ccccc2)cc1 [4-[1-(4-fluorophenyl)-3-(4-hydroxyphenyl)-4-phenylpyrazol-5-yl]phenol],≤ 4,–
"CCc1c(-c2ccc(O)cc2)nn(-c2ccc(O)cc2)c1-c1ccc(O)cc1 [4-[1,3-bis(4-hydroxyphenyl)-4-ethylpyrazol-5-yl]phenol]",≤ 4,–
CCc1c(-c2ccc(O)cc2)nn(CCN2CCOCC2)c1-c1ccc(O)cc1 [4-[4-ethyl-5-(4-hydroxyphenyl)-1-(2-morpholin-4-ylethyl)pyrazol-3-yl]phenol],≤ 4,–
C=CCc1c(-c2ccc(O)cc2)nn(C)c1CCc1ccccc1 [4-[1-methyl-5-(2-phenyethy)-4prop-2-enylpyrazol-3-yl]phenol],≤ 4,–
CCc1c(-c2ccc(O)cc2)nn(-c2ccccc2C)c1-c1ccc(O)cc1 [4-[4-ethyl-5-(4-hydroxyphenyl)-1-(2-methylphenyl)pyrazol-3-yl]phenol],≤ 4,–
"Oc1ccc(-c2nn(-c3ccc(Cl)cc3Cl)c(-c3ccc(O)cc3)c2-c2ccc(O)cc2)cc1 [4-[(1-(2,4-dichlorophenyl)-3,4-bis(4-hydroxyphenyl)pyrazol-5-yl]phenol]",≤ 4,–
Oc1ccc(-c2nn(-c3ncc(C(F)(F)F)cc3Cl)c(-c3ccc(O)cc3)c2-c2ccccc2)cc1 [4-{1-[3-chloro-5-(trifluoromethyl)(2-pyridyl)]-5-(4-hydroxyphenyl)-4-phenylpyrazol-3-yl}phenol],≤ 4,–

SMILES,EC50 [1] [µM],EC50 [2] [µM]
C=CCc1c(-c2ccc(O)cc2)nn(C2CCC2)c1-c1ccc(O)cc1 [4-[1-cyclobutyl-5-(4-hydroxyphenyl)-4-prop-2-enylpyrazol-3-yl]phenol],≤ 4,–
"Oc1ccc(-c2nn(-c3ccccc3)c(-c3ccc(O)cc3)c2-c2ccccc2)cc1 [4-[5-(4-hydroxyphenyl)-1,4-diphenylpyrazol-3-yl]phenol]",≤ 4,–
"Cn1nc(-c2ccc(O)cc2)c(-c2ccc(O)cc2)c1-c1ccc(O)cc1 [4-[3,5-bis(4-hydroxyphenyl)-1-methylpyrazol-4-yl]phenol]",≤ 4,–
"CCc1c(-c2ccc(O)cc2)nn(CC)c1-c1ccc(O)cc1 [4-[1,4-diethyl-5-(4-hydroxyphenyl)pyrazol-3-yl]phenol]",≤ 4,–
CCc1c(-c2ccc(O)cc2)nn(-c2cccc(C)c2)c1-c1ccc(O)cc1 [4-[4-ethyl-5-(4-hydroxyphenyl)-1-(3-methylphenyl)pyrazol-3-yl]phenol],≤ 4,–
"CCc1c(-c2ccc(O)cc2)nn(-c2ccc(S(N)(=O)=O)cc2)c1-c1ccc(O)cc1 [4-[3,5-bis(4-hydroxyphenyl)-4-ethylpyrazoly]benzenesulfonamide]",≤ 4,–
"Cn1nc2c(c1-c1ccc(O)cc1)CCc1c(O)cccc1-2 [3-(4-hydroxyphenyl)-2-methyl-2,4,5-trihydrobenzo[g]1H-indazol-6-ol]",≤ 4,–
"CCc1c(-c2ccc(O)cc2)nn(-c2c(Cl)cncc2Cl)c1-c1ccc(O)cc1 [4-[1-(3,5-dichloro(4-pyridyl))-4-ethyl-5-(4-hydroxyphenyl)pyrazol-3-yl]phenol]",≤ 4,–
Oc1ccc(-c2nn(-c3cccc(F)c3)c(-c3ccc(O)cc3)c2-c2ccccc2)cc1 [4-[1-(3-fluorphenyl)-5-(4-hydroxyphenyl)-4-phenylpyrazol-3-yl]phenol],≤ 4,–
"Oc1ccc(-c2n[nH]c(-c3ccc(O)cc3)c2Cc2cccc(O)c2)cc1 [3-{[3,5-bis(4-hydroxyphenyl)pyrazolyl]methyl}phenol]",≤ 4,–
"Oc1ccc(-c2nn(-c3ccc(C(F)(F)F)cc3)c(-c3ccc(O)cc3)c2-c2ccc(O)cc2)cc1 [4-{3,4-bis(4-hydroxyphenyl)-1-[4-(trifluoromethyl)phenyl]pyrazol-5-yl}phenol]",≤ 4,–
Oc1ccc(-c2nn(-c3ncc(Cl)cc3C(F)(F)F)c(-c3ccc(O)cc3)c2-c2ccccc2)cc1 [4-{1-[5-chloro-3-(trifluoromethyl)(2-pyridyl)]-5-(4-hydroxypheny)-4-phenylpyrazol-3-yl}phenol],≤ 4,–
CCCCC1CCC(C(=O)Oc2ccc(-c3c(CC)c(-c4ccc(O)cc4)nn3C3CCC3)cc2)CC1 (stereo not shown) [4-[1-cyclobutyl-4-ethyl-3-(4-hydroxyphenyl)pyrazol-5-yl]phenyl 4-butylcyclohexanecarboxylate],≤ 4,–
CCc1c(-c2ccc(OC(C)=O)cc2)nn(C2CCC2)c1-c1ccc(OC(C)=O)cc1 [4-[5-(4-acetyloxyphenyl)-1-cyclobutyl-4-ethylpyrazol-3-yl]phenyl acetate],≤ 4,–
"CCc1c(-c2ccc(O)cc2)nn(Cc2cccc(O)c2)c1-c1ccc(O)cc1 [3-{[3,5-bis(4-hydroxyphenyl)-4-ethylpyrazolyl]methyl}phenol]",–,≤ 4
"Cc1c(-c2ccc(O)cc2)nn(Cc2cccc(O)c2)c1-c1ccc(O)cc1 [3-{[3,5-bis(4-hydroxyphenyl)-4-methylpyrazolyl]methyl}phenol]",–,≤ 4
"CCc1c(-c2ccc(OC(=O)C(C)(C)C)cc2)nn(-c2ccccc2C(F)(F)F)c1-c1ccc(OC(=O)C(C)(C)C)cc1 [4-{5-[4-(2,2-dimethylpropanoyloxy)phenyl]-4-ethyl-1-[2-(trifluoromethyl)phenyl]pyrazol-3-yl}phenyl 2,2-dimethylpropanoate]",≤ 4,–
"Oc1ccc(-c2nn(-c3cccc(F)c3)c(-c3ccc(O)cc3)c2-c2ccc(O)cc2)cc1 [4-[3,4-bis(4-hydroxyphenyl)-1-(3-fluorophenyl)pyrazol-5-yl]phenol]",≤ 4,–
"Oc1ccc(-c2nn(-c3cccc(Cl)c3Cl)c(-c3ccc(O)cc3)c2-c2ccc(O)cc2)cc1 [4-[1-(2,3-dichlorophenyl)-3,4-bis(4-hydroxyphenyl)pyrazol-5-yl]phenol]",≤ 4,–
"Cc1ccc(-n2nc(-c3ccc(O)cc3)c(-c3ccccc3)c2-c2ccc(O)cc2)c(C)c1 [4-[1-(2,4-dimethylphenyl)-5(4-hydroxyphenyl)-4-phenylpyrazol-3-yl]phenol]",≤ 4,–
"Cc1cc(-n2nc(-c3ccc(O)cc3)c(-c3ccccc3)c2-c2ccc(O)cc2)nc2c1c(C)nn2C [4-[5-(4-hydroxyphenyl)-4-phenyl-1-(1,3,4-trimethylpyrazolo[4,5-e]pyridin-6-yl)pyrazol-3-yl]phenol]",≤ 4,–
"CCc1c(-c2ccc(O)cc2)nn(CC(=O)c2ccc(C#N)cc2)c1-c1ccc(O)cc1 [4-{2-[3,5-bis(4-hydroxyphenyl)-4-ethylpyrazolyl]acetyl}benzenecarbonitrile]",–,≤ 4
"Cc1cc(Cl)ccc1-n1nc(-c2ccc(O)cc2)c(-c2ccc(O)cc2)c1-c1ccc(O)cc1 [4-[3,4-bis(4-hydroxyphenyl)-1-(4-chloro-2-methylphenyl)pyrazol-5-yl]phenol]",≤ 4,–
